Values are relative to the signal before dosing, not to a vehicle control; the signal also falls without drug.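 Fibroblast labels name human fibroblasts: mostly primary ones from tissues such as uterus (C12385, HUF), lung (H6013), bone (Hs27A), adrenal (HADF) and skin (WS1), plus mammary HMF and breast cancer-associated Hs343T. The cancer cells are basal-like or mesenchymal-like triple-negative breast cancer lines. The paper calls a changed response a hit when it shifts by more than 3x the replicate standard deviation. The tissue of the other fibroblasts is not given here.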
System: MDAMB468
Assay: relative JC-1 red fluorescence (viability) vs pre-drug, coculture with fibroblast (fraction); higher = more viable cancer cells
Conditions: 1 µM
Procedure: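 JC-1 labelled TNBC cells cocultured 1:1 (1,500 cells each) with CellTrace Violet stained primary or stromal fibroblasts in 384-well plates in FluoroBrite medium, treated with one of 42 anticancer drugs at 0.1, 1, 10 or 100 uM. JC-1 red fluorescence (mitochondrial integrity in cancer cells only) was read by plate reader every 8 h for 72 h. Values are normalised to each well's pre-drug value. The stock of one drug was tenfold lower, so its dose labels may be too high.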

COc1cc([C@@H]2c3cc4c(cc3[C@@H](O[C@@H]3O[C@@H]5CO[C@@H](c6cccs6)O[C@H]5[C@H](O)[C@H]3O)[C@H]3COC(=O)[C@H]23)OCO4)cc(OC)c1O [Teniposide]
relative JC-1 red fluorescence
Conditions	40 h	48 h	56 h	64 h	72 h
coculture fibroblast: C12385	–	0.691	0.645	0.632	0.633
coculture fibroblast: H6013	–	0.841	0.81	0.801	0.739
coculture fibroblast: H6019	–	0.687	0.636	0.605	0.589
coculture fibroblast: H6076	–	0.73	0.706	0.695	0.718
coculture fibroblast: H6231	–	0.75	0.715	0.703	0.701
coculture fibroblast: HADF	–	0.744	0.707	0.6983	0.644
coculture fibroblast: HCFa	–	0.706	0.668	0.639	0.597
coculture fibroblast: HCPF	–	0.724	0.675	0.664	0.649
coculture fibroblast: HHSteC	0.805	0.8	0.745	0.722	0.664
coculture fibroblast: HMF	0.763	0.752	0.693	0.668	0.667
coculture fibroblast: HPFa	0.821	0.817	0.765	0.754	0.681
coculture fibroblast: HUF	0.666	0.64	0.588	0.566	0.542
coculture fibroblast: Hs5	0.802	0.778	0.747	0.724	0.738
coculture fibroblast: Hs27A	0.764	0.772	0.741	0.726	0.688
coculture fibroblast: Hs343T	0.731	0.717	0.679	0.653	0.6408
coculture fibroblast: WS1	0.655	0.634	0.613	0.6	0.599

Source: the supplement of paper PMC6078165
